Values of other authors, collected in patent publication US20040076968A1, “Method for detecting pre-disposition to hepatotoxicity” (priority 2000, published 2004).
Some of these results come from one statement about several compounds together. Some compounds share one range, which may span the group rather than tell each member.

Target: T1, UGT1A6*2 allelic variant (Homo sapiens, UniProt P19224, R184S/T181A)
T1 sequence (P19224 27-532 T181A/R184S): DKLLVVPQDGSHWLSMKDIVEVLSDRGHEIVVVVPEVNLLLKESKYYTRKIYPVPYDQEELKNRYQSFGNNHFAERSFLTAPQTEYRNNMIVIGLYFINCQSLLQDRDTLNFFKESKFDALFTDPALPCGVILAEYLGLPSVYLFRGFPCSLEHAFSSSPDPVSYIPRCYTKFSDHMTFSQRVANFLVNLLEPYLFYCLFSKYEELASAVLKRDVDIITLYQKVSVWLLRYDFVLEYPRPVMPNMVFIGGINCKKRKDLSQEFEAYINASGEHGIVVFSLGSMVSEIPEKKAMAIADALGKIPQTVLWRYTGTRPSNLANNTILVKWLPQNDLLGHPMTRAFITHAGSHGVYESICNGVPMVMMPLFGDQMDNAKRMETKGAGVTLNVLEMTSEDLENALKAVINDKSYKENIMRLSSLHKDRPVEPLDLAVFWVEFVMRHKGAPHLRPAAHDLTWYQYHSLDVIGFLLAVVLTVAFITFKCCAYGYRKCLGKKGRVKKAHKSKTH
Settings: UGT1A6*2 (Thr181Ala, Arg 184Ser) expressed in COS cells, pH 6.4; cited from earlier work

Rate of metabolism relative to the wild-type isoenzyme, 27-75%:
CCc1cccc(O)c1 [3-ethylphenol]
CCc1ccc(O)cc1 [4-ethylphenol]
O=[N+]([O-])c1ccc(O)cc1 [4-nitrophenol]
Cc1cc(C(C)(C)C)c(O)c(C(C)(C)C)c1 [butylated hydroxy toluene]
